For this experiment, the target named is T1, FLAG-tagged fibroblast growth factor 12 (FGF12) (human) (UniProt P61328).
T1 sequence: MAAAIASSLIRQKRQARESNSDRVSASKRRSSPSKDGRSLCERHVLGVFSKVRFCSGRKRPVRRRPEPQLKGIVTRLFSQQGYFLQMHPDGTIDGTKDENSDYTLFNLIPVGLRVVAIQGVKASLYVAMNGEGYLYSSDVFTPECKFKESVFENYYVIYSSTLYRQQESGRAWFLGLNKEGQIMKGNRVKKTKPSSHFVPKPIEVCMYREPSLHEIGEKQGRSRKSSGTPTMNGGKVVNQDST
Put plainly: co-IP; lysates of LNCaP FGF12 and control cells; anti-Flag antibody or normal IgG, Protein A/G agarose beads; Western blotting with anti-YB1 antibody; repeated after silencing of YB1 by siRNA. (In western blotting, separated proteins are transferred to a membrane and probed.)

The chains behind the UniProt entries cited, without tags or fusion partners.
UniProt P67809: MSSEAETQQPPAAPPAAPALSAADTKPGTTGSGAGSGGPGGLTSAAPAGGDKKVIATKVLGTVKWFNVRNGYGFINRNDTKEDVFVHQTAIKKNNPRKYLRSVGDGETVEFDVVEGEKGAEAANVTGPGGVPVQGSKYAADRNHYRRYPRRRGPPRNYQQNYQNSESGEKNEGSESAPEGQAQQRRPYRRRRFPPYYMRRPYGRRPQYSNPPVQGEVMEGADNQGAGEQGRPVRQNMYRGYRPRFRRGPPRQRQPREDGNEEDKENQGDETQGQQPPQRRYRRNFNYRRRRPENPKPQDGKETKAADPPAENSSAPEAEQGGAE

Results are given in words; binding and its absence hold for the method and conditions named. Binding seen in cells or lysates may run through a third protein. Some results given as binding are weak or reduced against the parent protein; the word gives no strength. Sequences can lack the tags named with a protein.

With “Y-box binding protein 1 (YB1) (from UniProt P67809 1-324)”, the binding result is recorded as “binds”.

Source of the values: publication PMC12651396.
